According to PMC12442679:
These are yes or no findings as the source states them, for the method shown. Binding seen in cells or lysates may run through a third protein. Some entries that bind do so weakly or less than the wild type.

Sequences of proteins named here, by UniProt entry; tags and fusion partners are left off.
UniProt Q9TSV5: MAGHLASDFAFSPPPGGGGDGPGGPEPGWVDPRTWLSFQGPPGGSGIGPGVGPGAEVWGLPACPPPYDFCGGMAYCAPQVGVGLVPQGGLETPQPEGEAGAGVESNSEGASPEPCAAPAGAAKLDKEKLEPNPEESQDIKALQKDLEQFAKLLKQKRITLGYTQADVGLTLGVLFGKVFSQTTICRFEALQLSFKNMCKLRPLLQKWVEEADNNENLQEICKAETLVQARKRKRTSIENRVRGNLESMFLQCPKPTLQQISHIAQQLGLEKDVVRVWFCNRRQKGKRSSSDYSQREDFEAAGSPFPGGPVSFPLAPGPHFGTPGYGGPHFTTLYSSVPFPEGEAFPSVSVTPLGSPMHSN

Target: T1, FOXH1 (FAST1, forkhead activin signal transducer 1) (pig (endogenous in pEPSCs)) (UniProt F1RSP3)
T1 sequence: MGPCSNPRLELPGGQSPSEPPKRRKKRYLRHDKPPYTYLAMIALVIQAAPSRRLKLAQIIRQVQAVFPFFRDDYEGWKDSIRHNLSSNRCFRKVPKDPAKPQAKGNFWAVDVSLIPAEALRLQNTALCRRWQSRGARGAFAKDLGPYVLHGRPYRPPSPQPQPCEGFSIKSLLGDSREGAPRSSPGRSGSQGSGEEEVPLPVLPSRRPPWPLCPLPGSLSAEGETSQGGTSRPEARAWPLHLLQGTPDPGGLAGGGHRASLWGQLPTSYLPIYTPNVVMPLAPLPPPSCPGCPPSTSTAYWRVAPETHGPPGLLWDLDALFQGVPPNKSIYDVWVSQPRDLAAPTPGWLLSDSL
Assay: co-IP; FOXH1 in pEPSCs immunoprecipitated with Flag-conjugated agarose beads; Western blot for FOXH1 and POU5F1

POU5F1 (from UniProt Q9TSV5 1-360)
binding: binds
